Reference: PMC6736869
These are yes or no findings as the source states them, for the method shown. Binding seen in cells or lysates may run through a third protein. Some results given as binding are weak or reduced against the parent protein; the word gives no strength.

Amino acid sequences for entries named in this document (tags omitted). Residues count along the entry.
UniProt Q15118, residues 29-436: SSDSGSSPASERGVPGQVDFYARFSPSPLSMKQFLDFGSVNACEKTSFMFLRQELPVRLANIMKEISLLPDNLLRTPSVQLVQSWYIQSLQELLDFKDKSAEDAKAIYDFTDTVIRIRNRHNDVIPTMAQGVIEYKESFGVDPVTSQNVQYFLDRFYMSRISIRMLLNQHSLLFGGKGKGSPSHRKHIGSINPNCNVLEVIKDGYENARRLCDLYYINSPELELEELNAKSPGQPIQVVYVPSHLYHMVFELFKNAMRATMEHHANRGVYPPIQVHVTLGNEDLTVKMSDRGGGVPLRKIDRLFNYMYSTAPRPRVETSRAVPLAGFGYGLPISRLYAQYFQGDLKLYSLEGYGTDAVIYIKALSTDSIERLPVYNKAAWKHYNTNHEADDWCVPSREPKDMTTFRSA
UniProt P40763: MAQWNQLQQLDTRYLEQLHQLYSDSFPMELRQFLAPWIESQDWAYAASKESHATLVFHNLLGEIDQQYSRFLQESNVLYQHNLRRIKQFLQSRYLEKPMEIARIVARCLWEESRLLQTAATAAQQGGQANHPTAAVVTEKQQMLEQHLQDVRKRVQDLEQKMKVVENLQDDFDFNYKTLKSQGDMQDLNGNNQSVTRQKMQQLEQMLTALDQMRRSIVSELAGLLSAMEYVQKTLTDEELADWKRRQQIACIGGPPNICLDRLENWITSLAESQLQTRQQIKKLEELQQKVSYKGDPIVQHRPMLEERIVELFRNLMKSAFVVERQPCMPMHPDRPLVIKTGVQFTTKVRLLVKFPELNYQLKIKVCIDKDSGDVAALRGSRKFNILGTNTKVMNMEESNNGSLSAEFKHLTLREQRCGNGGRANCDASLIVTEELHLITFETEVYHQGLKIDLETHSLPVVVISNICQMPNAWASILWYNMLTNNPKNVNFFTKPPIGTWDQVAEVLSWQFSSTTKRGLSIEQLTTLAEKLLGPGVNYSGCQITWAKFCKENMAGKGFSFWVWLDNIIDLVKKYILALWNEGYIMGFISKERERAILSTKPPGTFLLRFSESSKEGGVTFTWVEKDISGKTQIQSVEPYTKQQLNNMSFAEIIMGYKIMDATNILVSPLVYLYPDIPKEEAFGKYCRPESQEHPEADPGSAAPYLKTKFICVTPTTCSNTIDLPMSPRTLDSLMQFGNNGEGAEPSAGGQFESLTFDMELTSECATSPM

Target: pyruvate dehydrogenase kinase 1 (human (endogenous in HCT116 and SW480)) (UniProt Q15118)
Assay: co-IP; endogenous PDK1 precipitated with anti-PDK1 antibody and A/G sepharose beads from HCT116 and SW480 lysates (IP lysis buffer: 150 mM NaCl, 25 mM Tris-HCl pH 7.4, 1 mM EDTA, 1% NP-40), rotated overnight at 4 °C; Western blot for STAT3; rabbit IgG as control

Question: For STAT3 (from UniProt P40763 1-770), which binding is on record?
Answer: Its binding is “binds”.
